Primary screen of a compound library

Mtb glucose medium: 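Whole-cell growth test on Mycobacterium tuberculosis, read after 3 days in glucose-containing 7H9 medium; the read-out is not stated. Concentration: 50 µM. Direction is inferred from retests: higher values go with more growth inhibition. Size under these conditions: about 69,000 compounds, about 760 of them at 50% or above in at least one test.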
Mtb cholesterol medium: 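Growth of Mycobacterium tuberculosis over 4 days (cholesterol / DPPC medium with tyloxapol); the read-out is not stated. Concentration: 50 µM. The record gives no direction; compounds that gave an IC50 in retests scored well above the rest, so higher reads as more growth inhibition. About 69,000 compounds were tested under these conditions; 0.54% (about 370) showed 50% or more at least once.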

Results are given as percent effect.
The controls that fix the scale are not given in the record; negative values are as filed.
This is an unselected part of the compounds tested.
Two or more numbers in one place are separate tests of the same structure; such repeats can differ widely.

Cn1cc(S(=O)(=O)N2CCC(OCCCc3ccccc3)C2)cn1 (configuration not stated) read Mtb glucose medium: 19.53% & 5.984%; Mtb cholesterol medium: 4.075%. Result for Clc1ccc(CN2CCOC[C@H](Oc3cccnc3)C2)cc1 was Mtb glucose medium: 9.745% & 17.26%; Mtb cholesterol medium: -12.03%. CCCS(=O)(=O)N1CCCN(CCCOC)CC1 read Mtb glucose medium: -13.92%; Mtb cholesterol medium: 1.643%. O=C(O)C(F)(F)F.[H][C@@]12CCN(CC3CCCC3)C[C@]1(C(=O)N1CCOCC1)CCO2 gave Mtb glucose medium: -8.078%; Mtb cholesterol medium: -11.18%. For COc1ccc([C@@H]2CN(C(=O)CCCc3cn[nH]c3)C[C@H]2N(C)C)cc1 the result was Mtb glucose medium: -30.57% & 3.388%; Mtb cholesterol medium: 12.69%. CCNc1nc(C)c(C(=O)N(C)Cc2nc(-c3ccncc3)no2)s1 read Mtb glucose medium: -29.11%; Mtb cholesterol medium: -9.866%. Cc1cc(C2CCCN(Cc3nnc(Cc4ccccc4)o3)C2)n[nH]1 (configuration not stated) read Mtb glucose medium: -3.772%; Mtb cholesterol medium: 2.162%.

With NC(=O)CN1CCCCC1c1nc(N)ncc1-c1cccc(F)c1 (configuration not stated) the screen gave Mtb glucose medium: 8.554%; Mtb cholesterol medium: -10.87%. Result for O=C(Nc1ccc2c(c1)OCO2)N1CCN(CCc2ccccc2)CC1 was Mtb glucose medium: 16.68%; Mtb cholesterol medium: 11.56%. For CC(=O)NCc1cc2n(n1)CCN(Cc1cccc(Cl)c1Cl)C2 the result was Mtb glucose medium: 1.463%; Mtb cholesterol medium: -8.07%. Result for Cc1cccc(NC(=O)C(C)Nc2cccc(CN3CCOC3=O)c2)c1 (configuration not stated) was Mtb glucose medium: -2.812%; Mtb cholesterol medium: -8.215%. Result for COc1ccccc1S(=O)(=O)NCC(c1cccn1C)N(C)C (configuration not stated) was Mtb glucose medium: 14.81%; Mtb cholesterol medium: 5.136%. For [H][C@]12CN(CC)C(=O)[C@@]1([H])CN(S(=O)(=O)c1cccs1)C2 the result was Mtb glucose medium: -4.342%; Mtb cholesterol medium: -9.083%. With COc1ccc2c(c1)nc1n2[C@@H](CNC(=O)c2cccnc2)COC1 the screen gave Mtb glucose medium: -26.54% & -4.623%; Mtb cholesterol medium: -16.13%.

Cc1nn(C)c(C)c1CCC(=O)N1CCc2sccc2C1 gave Mtb glucose medium: 6.739%; Mtb cholesterol medium: -29.77%. Result for Cc1nc2c(c(N3CCCOCC3)n1)CCN(C(=O)N1CCCC1)CC2 was Mtb glucose medium: -11.11% & 14.73%; Mtb cholesterol medium: 4.069% & 7.891%. CC(C)c1nc(C2CCCN2C(=O)c2ccc3nncn3c2)no1 (configuration not stated) gave Mtb glucose medium: -32.81%; Mtb cholesterol medium: -7.092% & -14.68%. O=C(NCCc1nncn1C1CC1)C1(c2ccccc2)CCC1 gave Mtb glucose medium: -31.66% & -9.383%; Mtb cholesterol medium: -26.48%. Result for CCCC(C)N(C)Cc1nnc(-c2ccco2)o1 (configuration not stated) was Mtb glucose medium: 49.17% & 46.08%; Mtb cholesterol medium: 25.75%. [H][C@@]12CCN(S(C)(=O)=O)[C@@]1([H])CCN2C(=O)c1cc(C)oc1C gave Mtb glucose medium: -14.14%; Mtb cholesterol medium: -8.455%. O=C(O)C(F)(F)F.[H][C@]12CCC(=O)N(c3ccccc3)[C@@]1([H])CCN2C(=O)c1ccc(C)nc1 read Mtb glucose medium: -2.988%; Mtb cholesterol medium: -16.44% & 12.4%.

With OCCC1(NCc2ccc(-n3cccn3)cc2)CCOCC1 the screen gave Mtb glucose medium: 29.45%; Mtb cholesterol medium: -4.098%.

Some entries from above, unchanged:

| SMILES | Mtb glucose medium | Mtb cholesterol medium |
|---|---|---|
| `Cc1nn(C)c(C)c1CCC(=O)N1CCc2sccc2C1` | 6.739 | -29.77 |
| `Cc1cccc(NC(=O)C(C)Nc2cccc(CN3CCOC3=O)c2)c1` (configuration not stated) | -2.812 | -8.215 |

From ChEMBL document CHEMBL3988442, “University of Dundee, Small-Polar-MMV Screening Library” (2021).